Measured values from paper doi:10.1101/2023.09.01.555937.
These are yes or no findings as the source states them, for the method shown. Some results given as binding are weak or reduced against the parent protein; the word gives no strength. Where a sequence is shown, tags or fusion partners need not be part of it. Each block holds one binder with its values, some of them ahead of it.

Molecular target: T1, S. cerevisiae SAM50 (N-terminally 3xFlag tagged) (S. cerevisiae) (UniProt P53969)
T1 sequence: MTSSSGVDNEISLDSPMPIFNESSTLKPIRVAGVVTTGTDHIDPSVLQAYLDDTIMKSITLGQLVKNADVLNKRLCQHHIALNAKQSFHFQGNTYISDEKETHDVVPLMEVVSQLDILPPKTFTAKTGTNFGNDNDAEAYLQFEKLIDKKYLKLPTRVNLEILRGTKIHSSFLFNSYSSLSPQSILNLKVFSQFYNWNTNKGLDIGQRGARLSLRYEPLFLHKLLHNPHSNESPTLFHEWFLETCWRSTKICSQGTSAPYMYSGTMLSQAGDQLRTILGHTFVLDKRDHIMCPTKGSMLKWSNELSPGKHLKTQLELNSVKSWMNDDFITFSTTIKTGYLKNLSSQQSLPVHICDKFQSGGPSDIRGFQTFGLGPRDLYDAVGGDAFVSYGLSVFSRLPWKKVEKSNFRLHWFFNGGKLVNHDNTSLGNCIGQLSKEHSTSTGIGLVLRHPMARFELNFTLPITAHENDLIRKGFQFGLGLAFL
Assay: co-purification (anti-FLAG resin, then SEC); SAM35, Strep-SAM37 and 3xFlag-SAM50 co-transfected 1:1:1 in Expi293 cells; extracted with 1% GDN; bound to Flag resin, eluted with Flag peptide; Superdex 200 10/300 in buffer B with 0.02% GDN; reconstituted into proteoliposomes that were analysed by SDS-PAGE

binding: binds
B1: S. cerevisiae SAM37 (N-terminally Strep tagged) (protein, UniProt P50110 1-327)
chain: MVKGSVHLWGKDGKASLISVDSIALVWFIKLCTSEEAKSMVAGLQIVFSNNTDLSSDGKLPVLILDNGTKVSGYVNIVQFLHKNICTSKYEKGTDYEEDLAIVRKKDRLLEYSLLNYVDVEISRLTDYQLFLNTKNYNEYTKKLFSKLLYFPMWYNTPLQLRSQARENCEEIIGSLTLEDDEEFVESKAMESASQLAQSKTFKIAHKNKIKGKQELQQVKYNLQFDNRLQSCVSNWLAARKKLDDSVILSSDLLFLANLYVQLGLPDGNRIRSKLEQTFGSELLNSMSNKIDDFVHRPSNNLEQRDPQFREQGNVVMSLYNLACKYI

binding: binds
B2: S. cerevisiae SAM35 (no tag) (protein, UniProt P14693 1-329)
chain: MVSSFSVPMPVKRIFDTFPLQTYAAQTDKDEAVALEIQRRSYTFTERGGGSSELTVEGTYKLGVYNVFLEANTGAALATDPWCLFVQLALCQKNGLVLPTHSQEQTPSHTCNHEMLVLSRLSNPDEALPILVEGYKKRIIRSTVAISEIMRSRILDDAEQLMYYTLLDTVLYDCWITQIIFCASDAQFMELYSCQKLSGSIVTPLDVENSLLQKLSAKSLKISLTKRNKFQFRHREIVKSMQGVYHNHHNSVNQEQVLNVLFENSKQVLLGLKDMLKSDGQPTYLHLKIASYILCITNVKEPIKLKTFVENECKELVQFAQDTLKNFVQ
